These are yes or no findings as the source states them, for the method shown. Binding can be weak; no strength is given.
target: Rab5 (Q79L); assay: two-hybrid

binding | Binder
binds | TECPR2 (935-1411 a.a.) (domain or fragment, UniProt O15040 935-1411) YPLSQITARNNVVWALTEQRALLYREGVSSFCPEGEQWKCDIVSERQALEPVCITLGDQQTLWALDIHGNLWFRTGIISKKPQGDDDHWWQVSITDYVVFDQCSLFQTIIHATHSVATAAQAPVEKVADKLRMAFWSQQLQCQPSLLGVNNSGVWISSGKNEFHVAKGSLIGTYWNHVVPRGTASATKWAFVLASAAPTKEGSFLWLCQSSKDLCSVSAQSAQSRPSTVQLPPEAEMRAYAACQDALWALDSLGQVFIRTLSKSCPTGMHWTRLDLSQLGAVKLTSLACGNQHIWACDSRGGVYFRVGTQPLNPSLMLPAWIMIEPPVQPAGVSLVSVHSSPNDQMLWVLDSRWNVHVRTGITEEMPVGTAWEHVPGLQACQLALSTRTVWARCPNGDLARRYGVTDKNPAGDYWKKIPGSVSCFTVTASDELWAVGPPGYLLQRLTKTFSHSHGTQKSSQAAMPHPEDLEDEWEVI
binds | TECPR2 (I1256A) (protein, UniProt O15040 1-1411) MASISEPVTFREFCPLYYLLNAIPTKIQKGFRSIVVYLTALDTNGDYIAVGSSIGMLYLYCRHLNQMRKYNFEGKTESITVVKLLSCFDDLVAAGTASGRVAVFQLVSSLPGRNKQLRRFDVTGIHKNSITALAWSPNGMKLFSGDDKGKIVYSSLDLDQGLCNSQLVLEEPSSIVQLDYSQKVLLVSTLQRSLLFYTEEKSVRQIGTQPRKSTGKFGACFIPGLCKQSDLTLYASRPGLRLWKADVHGTVQATFILKDAFAGGVKPFELHPRLESPNSGSCSLPERHLGLVSCFFQEGWVLSWNEYSIYLLDTVNQATVAGLEGSGDIVSVSCTENEIFFLKGDRNIIRISSRPEGLTSTVRDGLEMSGCSERVHVQQAEKLPGATVSETRLRGSSMASSVASEPRSRSSSLNSTDSGSGLLPPGLQATPELGKGSQPLSQRFNAISSEDFDQELVVKPIKVKRKKKKKKTEGGSRSTCHSSLESTPCSEFPGDSPQSLNTDLLSMTSSVLGSSVDQLSAESPDQESSFNGEVNGVPQENTDPETFNVLEVSGSMPDSLAEEDDIRTEMPHCHHAHGRELLNGAREDVGGSDVTGLGDEPCPADDGPNSTQLPFQEQDSSPGAHDGEDIQPIGPQSTFCEVPLLNSLTVPSSLSWAPSAEQWLPGTRADEGSPVEPSQEQDILTSMEASGHLSTNLWHAVTDDDTGQKEIPISERVLGSVGGQLTPVSALAASTHKPWLEQPPRDQTLTSSDEEDIYAHGLPSSSSETSVTELGPSCSQQDLSRLGAEDAGLLKPDQFAESWMGYSGPGYGILSLVVSEKYIWCLDYKGGLFCSALPGAGLRWQKFEDAVQQVAVSPSGALLWKIEQKSNRAFACGKVTIKGKRHWYEALPQAVFVALSDDTAWIIRTSGDLYLQTGLSVDRPCARAVKVDCPYPLSQITARNNVVWALTEQRALLYREGVSSFCPEGEQWKCDIVSERQALEPVCITLGDQQTLWALDIHGNLWFRTGIISKKPQGDDDHWWQVSITDYVVFDQCSLFQTIIHATHSVATAAQAPVEKVADKLRMAFWSQQLQCQPSLLGVNNSGVWISSGKNEFHVAKGSLIGTYWNHVVPRGTASATKWAFVLASAAPTKEGSFLWLCQSSKDLCSVSAQSAQSRPSTVQLPPEAEMRAYAACQDALWALDSLGQVFIRTLSKSCPTGMHWTRLDLSQLGAVKLTSLACGNQHIWACDSRGGVYFRVGTQPLNPSLMLPAWAMIEPPVQPAGVSLVSVHSSPNDQMLWVLDSRWNVHVRTGITEEMPVGTAWEHVPGLQACQLALSTRTVWARCPNGDLARRYGVTDKNPAGDYWKKIPGSVSCFTVTASDELWAVGPPGYLLQRLTKTFSHSHGTQKSSQAAMPHPEDLEDEWEVI
binds | TECPR2 (T903M) (protein, UniProt O15040 1-1411) MASISEPVTFREFCPLYYLLNAIPTKIQKGFRSIVVYLTALDTNGDYIAVGSSIGMLYLYCRHLNQMRKYNFEGKTESITVVKLLSCFDDLVAAGTASGRVAVFQLVSSLPGRNKQLRRFDVTGIHKNSITALAWSPNGMKLFSGDDKGKIVYSSLDLDQGLCNSQLVLEEPSSIVQLDYSQKVLLVSTLQRSLLFYTEEKSVRQIGTQPRKSTGKFGACFIPGLCKQSDLTLYASRPGLRLWKADVHGTVQATFILKDAFAGGVKPFELHPRLESPNSGSCSLPERHLGLVSCFFQEGWVLSWNEYSIYLLDTVNQATVAGLEGSGDIVSVSCTENEIFFLKGDRNIIRISSRPEGLTSTVRDGLEMSGCSERVHVQQAEKLPGATVSETRLRGSSMASSVASEPRSRSSSLNSTDSGSGLLPPGLQATPELGKGSQPLSQRFNAISSEDFDQELVVKPIKVKRKKKKKKTEGGSRSTCHSSLESTPCSEFPGDSPQSLNTDLLSMTSSVLGSSVDQLSAESPDQESSFNGEVNGVPQENTDPETFNVLEVSGSMPDSLAEEDDIRTEMPHCHHAHGRELLNGAREDVGGSDVTGLGDEPCPADDGPNSTQLPFQEQDSSPGAHDGEDIQPIGPQSTFCEVPLLNSLTVPSSLSWAPSAEQWLPGTRADEGSPVEPSQEQDILTSMEASGHLSTNLWHAVTDDDTGQKEIPISERVLGSVGGQLTPVSALAASTHKPWLEQPPRDQTLTSSDEEDIYAHGLPSSSSETSVTELGPSCSQQDLSRLGAEDAGLLKPDQFAESWMGYSGPGYGILSLVVSEKYIWCLDYKGGLFCSALPGAGLRWQKFEDAVQQVAVSPSGALLWKIEQKSNRAFACGKVTIKGKRHWYEALPQAVFVALSDDMAWIIRTSGDLYLQTGLSVDRPCARAVKVDCPYPLSQITARNNVVWALTEQRALLYREGVSSFCPEGEQWKCDIVSERQALEPVCITLGDQQTLWALDIHGNLWFRTGIISKKPQGDDDHWWQVSITDYVVFDQCSLFQTIIHATHSVATAAQAPVEKVADKLRMAFWSQQLQCQPSLLGVNNSGVWISSGKNEFHVAKGSLIGTYWNHVVPRGTASATKWAFVLASAAPTKEGSFLWLCQSSKDLCSVSAQSAQSRPSTVQLPPEAEMRAYAACQDALWALDSLGQVFIRTLSKSCPTGMHWTRLDLSQLGAVKLTSLACGNQHIWACDSRGGVYFRVGTQPLNPSLMLPAWIMIEPPVQPAGVSLVSVHSSPNDQMLWVLDSRWNVHVRTGITEEMPVGTAWEHVPGLQACQLALSTRTVWARCPNGDLARRYGVTDKNPAGDYWKKIPGSVSCFTVTASDELWAVGPPGYLLQRLTKTFSHSHGTQKSSQAAMPHPEDLEDEWEVI

Reference: doi:10.1101/2024.10.03.616509
